# Laboratory results: PubChem BioAssay AID485364 (National Center for Advancing Translational Sciences (NCATS), 2010)
# Shown are results outside the selection of hits, which stands elsewhere. Calls of active or inactive are those of the source. The call rests on the fitted dose curve; in most records, active means well fitted inhibition curve with a large enough effect; inconclusive means small, poorly fitted or top-dose-only effect; inactive means no such curve, though single readings can be large or run the other way.
# Biological target: Schistosoma mansoni thioredoxin glutathione reductase (TGR) (UniProt Q962Y6)
# Assay: qHTS Assay for the Inhibitors of Schistosoma Mansoni Peroxiredoxins; further: nearly all actives have a fitted effect of over 60% in size
# Details: purified TGR, DTNB reduction, TNB absorbance 405 nm; at 114 µM (top of the series)
# Source text: Schistosomiasis is a major neglected tropical disease that currently affects over 200 million. It is caused by different species of flatworms, such as Schistosoma mansoni. Over the last century, drugs to treat the disease have evolved from potassium antimonyl tartrate, artemisinin, oxamniquine, to praziquantel, with praziquantel remaining the universally-used single drug of choice over the past three decades. However, transmission rates have changed little with praziquantel, and there is evidence for the development of drug resistant parasites. Because there is currently no suitable alternative therapy available, there is an urgent need to identify new targets and drugs for schistosomiasis treatment. […] Recently, a quantitative high-throughput screen of the NIH Molecular Libraries Small Molecule Repository (MLSMR, ~71K at the time of the screen in 2007) was performed using an assay that targeted both TGR and peroxiredoxin2 (Prx2, an H2O2-reducing enzymatic component of the S. mansoni redox "firewall") by following the decrease of NADPH fluorescence. […] In addition, the fluorescence assay was also subject to fluorescence interference from compound library members. […] The assay followed the reduction of 5, 5'-dithiobis (2-nitrobenzoic acid) (DTNB) (Ellman's reagent) by NADPH and measured the increase in absorbance at 412 nm of the reaction product, TNB. […]
# On the % scale 0 is the no-effect control and ±100 the full control effect.
row,Structure (SMILES),"activity change, negative = inhibition"
1,CC(C)(C(=O)O)c1ccc([C@H](O)CCCN2CCC(C(O)(c3ccccc3)c3ccccc3)CC2)cc1,inactive: 13.8%
2,CC(C)(C(=O)O)c1ccc(C(O)CCCN2CCC(C(O)(c3ccccc3)c3ccccc3)CC2)cc1 (configuration not stated),inactive: -2.78%
